The chains behind the UniProt entries cited, without tags or fusion partners. Where a name states a change or a piece, a line headed by the entry shows the natural chain unless it says otherwise.
UniProt Q86U44: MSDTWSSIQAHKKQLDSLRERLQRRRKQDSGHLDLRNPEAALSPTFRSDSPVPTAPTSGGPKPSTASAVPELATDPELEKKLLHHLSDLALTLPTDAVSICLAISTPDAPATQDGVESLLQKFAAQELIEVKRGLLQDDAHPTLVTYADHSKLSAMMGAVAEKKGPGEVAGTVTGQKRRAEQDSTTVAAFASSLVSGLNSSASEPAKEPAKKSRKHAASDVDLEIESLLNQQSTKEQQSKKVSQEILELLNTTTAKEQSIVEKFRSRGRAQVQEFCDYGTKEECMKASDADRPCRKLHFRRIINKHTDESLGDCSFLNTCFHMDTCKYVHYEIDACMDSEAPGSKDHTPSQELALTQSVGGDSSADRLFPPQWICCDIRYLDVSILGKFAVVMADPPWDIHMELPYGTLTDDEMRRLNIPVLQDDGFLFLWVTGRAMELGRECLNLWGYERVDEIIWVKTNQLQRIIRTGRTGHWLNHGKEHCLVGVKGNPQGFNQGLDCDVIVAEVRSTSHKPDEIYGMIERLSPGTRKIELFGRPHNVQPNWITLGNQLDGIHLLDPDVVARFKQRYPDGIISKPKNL
UniProt P19474: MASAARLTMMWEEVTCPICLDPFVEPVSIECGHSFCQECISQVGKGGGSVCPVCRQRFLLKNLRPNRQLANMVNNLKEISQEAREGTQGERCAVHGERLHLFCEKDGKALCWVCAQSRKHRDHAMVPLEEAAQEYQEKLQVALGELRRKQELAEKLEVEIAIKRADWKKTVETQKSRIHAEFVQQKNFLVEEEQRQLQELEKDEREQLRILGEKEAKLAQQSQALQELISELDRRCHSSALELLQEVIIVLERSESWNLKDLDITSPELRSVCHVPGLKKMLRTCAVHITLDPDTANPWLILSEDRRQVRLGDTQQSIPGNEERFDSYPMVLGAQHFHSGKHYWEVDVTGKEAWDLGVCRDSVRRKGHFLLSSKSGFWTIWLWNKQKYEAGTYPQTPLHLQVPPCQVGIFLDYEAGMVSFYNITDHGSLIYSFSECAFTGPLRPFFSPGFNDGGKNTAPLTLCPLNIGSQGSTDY

In publication PMC11965403:

Target: Flag-tagged METTL3 (Methyltransferase like 3) (human) (UniProt Q86U44)
Experiment: co-IP; Flag-METTL3 with His-TRIM21 domain-deletion mutants; IP with anti-Flag antibody; cell line not stated

His-TRIM21 domain-deletion mutant lacking the coiled-coil domain (from UniProt P19474) (enzyme)
binding: no binding

No constants are given. Whether binding was seen depends on the method and setting. Binding seen in cells or lysates may run through a third protein.
